Measured values: paper doi:10.1101/2020.03.12.988840

Protein sequences, listed by entry. Tags and fused reporters are not part of them. Lines headed by an entry give the natural chain unless they say otherwise; changes in a name come on top.
UniProt Q20305: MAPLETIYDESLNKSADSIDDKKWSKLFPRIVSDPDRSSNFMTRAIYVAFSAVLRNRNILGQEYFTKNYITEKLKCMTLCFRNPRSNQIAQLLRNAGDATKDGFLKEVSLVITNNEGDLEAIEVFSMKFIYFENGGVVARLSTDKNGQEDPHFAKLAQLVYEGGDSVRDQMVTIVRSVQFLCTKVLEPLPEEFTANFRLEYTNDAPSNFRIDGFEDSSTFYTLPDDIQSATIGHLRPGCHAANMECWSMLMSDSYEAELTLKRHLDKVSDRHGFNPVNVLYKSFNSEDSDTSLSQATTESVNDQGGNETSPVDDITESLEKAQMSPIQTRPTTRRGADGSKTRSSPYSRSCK
UniProt O01820: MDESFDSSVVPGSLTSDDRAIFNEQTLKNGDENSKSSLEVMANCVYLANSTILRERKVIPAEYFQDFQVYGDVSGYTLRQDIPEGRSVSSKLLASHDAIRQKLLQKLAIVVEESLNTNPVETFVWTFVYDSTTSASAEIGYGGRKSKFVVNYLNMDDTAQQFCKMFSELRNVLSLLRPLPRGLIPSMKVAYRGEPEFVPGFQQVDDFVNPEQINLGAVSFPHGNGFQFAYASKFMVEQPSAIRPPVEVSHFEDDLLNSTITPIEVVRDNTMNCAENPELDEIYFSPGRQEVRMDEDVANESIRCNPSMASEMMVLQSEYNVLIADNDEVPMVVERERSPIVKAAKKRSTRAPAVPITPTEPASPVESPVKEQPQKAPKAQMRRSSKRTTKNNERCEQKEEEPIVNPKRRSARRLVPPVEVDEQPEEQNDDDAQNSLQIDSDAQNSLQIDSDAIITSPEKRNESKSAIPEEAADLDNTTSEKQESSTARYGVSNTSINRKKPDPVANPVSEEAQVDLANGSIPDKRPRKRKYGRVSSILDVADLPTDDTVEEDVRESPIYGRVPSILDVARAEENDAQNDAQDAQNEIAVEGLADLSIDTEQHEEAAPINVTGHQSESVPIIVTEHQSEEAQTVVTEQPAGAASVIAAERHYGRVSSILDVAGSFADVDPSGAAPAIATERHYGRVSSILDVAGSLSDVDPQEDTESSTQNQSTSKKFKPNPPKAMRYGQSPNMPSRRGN

Experiments:
HTP-1::GFP (C. elegans) = HTP-1::GFP (C. elegans) (UniProt Q20305); assay: co-IP
HTP-3::GFP (C. elegans) = HTP-3::GFP (C. elegans) (UniProt O01820); assay: co-IP

B1: PARG-1 (poly(ADP-ribose) glycohydrolase), endogenous (enzyme, UniProt Q867X0 1-781)
chain: MSKKFIELGDPVTQDEKDYEDYVGVGFAHQVPTMKRRKLTEHGNTTESKEDPEEPKSRDVFVSSQSSDESQEDSAENPEIAKEVSENCENLTETLKISNIESLDNVTERSEHTLDNHKSTEPMEEDVNNKSNIDVAINSDEDDELVLEENNKEMRDGEQVQQDLFADDQELIEYPGIMKDTTTQLDITDSEVETAQKMEMIEETEADSTFVGEDSKNQRQSGTTSDEVDADSQINLATKTVRTSSSSFLSTVSTCEAPAKGRARMYQKELEKHVIAFTEGNLTLQPDLNKVDPDRNYRYCTIPNFPASQGKLREDNRYGPKIVLPQRWREFDSRGRRRDSYFYFKRKLDGYLKCYKTTGYFMFVGLLHNMWEFDPDITYKLPALEMYYKEMSELVGREEVLEKFARVARIAKTAEDILPERIYRLVGDVESATLSHKQCAALVARMFFARPDSPFSFCRILSSDKSICVEKLKFLFTYFDKMSMDPPDGAVSFRLTKMDKDTFNEEWKDKKLRSLPEVEFFDEMLIEDTALCTQVDFANEHLGGGVLNHGSVQEEIRFLMCPEMMVGMLLCEKMKQLEAISIVGAYVFSSYTGYGHTLKWAELQPNHSRQNTNEFRDRFGRLRVETIAIDAILFKGSKLDCQTEQLNKANIIREMKKASIGFMSQGPKFTNIPIVTGWWGCGAFNGDKPLKFIIQVIAAGVADRPLHFCSFGEPELAAKCKKIIERMKQKDVTLGMLFSMINNTGLPHKHFEFYVFDRISTYLSSSEDVESSKSSPSVSRA
HTP-1::GFP (C. elegans)
  binding: binds
HTP-3::GFP (C. elegans)
  binding: binds

No constants are given. Whether binding was seen depends on the method and setting. Binding seen in cells or lysates may run through a third protein. A result given as binding can be weak or reduced; the word gives no strength.
